Results published in US20070270486A1.
No constants are given. Whether binding was seen depends on the method and setting. Some results given as binding are weak or reduced against the parent protein; the word gives no strength.

By UniProt entry, the sequences of proteins in these tests, tags left out. Residues count along the entry.
UniProt P61823, residues 47-150: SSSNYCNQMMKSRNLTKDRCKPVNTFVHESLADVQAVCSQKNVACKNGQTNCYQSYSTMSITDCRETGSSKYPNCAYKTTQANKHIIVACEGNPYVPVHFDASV

Experiments:
Assay in all cases: western blot of lysates of transfected HEK-293 cells
[1] = biological target: CFTR truncated after S-tag insert at Site A: S{AS[SG(…)PPPSGL-COOH [SEQ ID NO:22] (human) (UniProt P13569)
[2] = biological target: CFTR with S-tag insert at Site A (between S895 and T896): S{AS[GGGG(…)GGGG(…)GGGG(…)GGGG(…)GGGG]PR}T [SEQ ID NO:20] (human) (UniProt P13569)
[3] = biological target: CFTR with S-tag insert at Site A (between S895 and T896): S{AS[GGGG(…)GGGG(…)GGGG(…)GGGG]PR}T [SEQ ID NO:19] (human) (UniProt P13569)

Measured: binding

S-protein HRP (from UniProt P61823 47-150) (enzyme)
binds: all assays above
